The campaign covered roughly 31,000 sequences. About 1,400 (4.5%) were called active.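 How the source made its calls: active means median seed-adjusted z-score above 1 or below -1; inactive means the rest.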 Some of the results follow.
Test: Novel Modifiers of Survival Motor Neuron (SMN) Protein: Gene Identification via Genome-wide siRNA Screen;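 further: luminescence tracks full-length SMN protein made from the SMN2 reporter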
Conditions: HEK293T SMN2-luciferase reporter, siRNA knockdown, 72 h; actives lie on both sides
How it was run: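 Each of three siRNAs per gene is reverse-transfected (1 pmol) into reporter HEK293T cells whose luciferase output tracks SMN protein level. After 72 h culture, ONE-Glo luminescence is control-normalized, log10-transformed and MAD-standardized; Common Seed Analysis deprioritizes seed-driven hits.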

Sequence	median seed-adjusted z-score
CCAGAUGUUUUCUACCUGATT against CHST4	inactive: 0.349
CCAAGAAUGCUGCAUCGGATT against ZMYND11	inactive: -0.032
AGGACGGUGCAGUACAGAATT against ZBTB46	inactive: 0.0546
GAGCAGACUGGAAAUCUAATT against DDX24	inactive: 0.246
GAAUCACUGUUUACGUAUUTT against ADCY5	inactive: -0.123
GCAGAUUUAUCAACGGCUUTT against XIAP	inactive: -0.0329
GGACUAAUCGAGUCAAGCUTT against DUSP1	inactive: 0.336
GCAGUUUGCAUGUUACAAATT against OXNAD1	inactive: 0.36
CGUUUUAGAUGAUCCAGAUTT against CALU	inactive: 0.123
AAACACCGCUGUUCCGUAATT against MED8	active: -1.61
GGUACAUCUAUACUACCAATT against POLR3C	inactive: -0.294
CACUGCAAGUGGACAUCAATT against TGFB1	inactive: 0
GCUAUACUAAUAAGUCAUATT against ZNF337	inactive: 0.104
GAACUGCUCCGCCUACUACTT against COMTD1	inactive: 0.0487
GCGCUAAAGUGGAUAAUGATT against ABLIM3	inactive: -0.29
CACUUAUCUCGAAAGCCUATT against SLC37A1	inactive: -0.102
CCCUAUGACUGUAAUCACUTT against ZNF200	inactive: 0.498
GGGUGGAUAUGAGAUCCCATT against KLC4	inactive: 0
GCAACGCAGAUGCGGCAAATT against BAD	inactive: 0
GGUCAGCAACUAUAGUCGATT against FOLR3	inactive: 0
CGGACGACGUAAUCACUGATT against HCLS1	inactive: 0.107
GCUUAAUAAUUUCCUCCGATT against CADPS2	inactive: -0.0213
CAAAGGACCCAAUAGAAUUTT against GUCY2F	inactive: 0.188
GGACUGACAUUUCACGUAUTT against THAP6	inactive: 0.368
GGAAAUUGAUAACUACAAATT against ERC1	inactive: 0.415
AGAGUACCGGUAUUCCCAATT against FOXK1	inactive: 0.63
GAUACGAAAUGGUGUUAAATT against POLG2	inactive: 0
AGGACAUUAUCAACCCGGATT against DMAP1	inactive: 0.342
GGACUCGAAGGUUCACGAATT against ODZ2	inactive: -0.0233
GCCCAUUGCUAUCAGCAGATT against ZNF512B	inactive: 0.212

Random excerpt: two entries already listed.
Sequence	median seed-adjusted z-score
CGUUUUAGAUGAUCCAGAUTT against CALU	inactive: 0.123
CGGACGACGUAAUCACUGATT against HCLS1	inactive: 0.107

Source: PubChem BioAssay AID1347426 (Functional Genomics Laboratory (NCATS/FGL), 2020)
